Experimental data: the supplement of paper PMC10849652
This is one part of the list.

Protein sequences, listed by entry. Tags and fused reporters are not part of them. Lines headed by an entry give the natural chain unless they say otherwise; changes in a name come on top.
UniProt P41223: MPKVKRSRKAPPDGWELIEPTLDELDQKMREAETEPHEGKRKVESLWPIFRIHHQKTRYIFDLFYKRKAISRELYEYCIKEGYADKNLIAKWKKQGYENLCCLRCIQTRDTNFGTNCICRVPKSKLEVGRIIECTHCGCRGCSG
UniProt Q9H3J6: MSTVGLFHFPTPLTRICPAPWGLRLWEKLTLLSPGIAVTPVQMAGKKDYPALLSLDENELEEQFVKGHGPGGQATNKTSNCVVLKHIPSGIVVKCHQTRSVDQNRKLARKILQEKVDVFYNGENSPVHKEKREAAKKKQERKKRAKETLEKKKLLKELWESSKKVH
UniProt Q9Y6E2: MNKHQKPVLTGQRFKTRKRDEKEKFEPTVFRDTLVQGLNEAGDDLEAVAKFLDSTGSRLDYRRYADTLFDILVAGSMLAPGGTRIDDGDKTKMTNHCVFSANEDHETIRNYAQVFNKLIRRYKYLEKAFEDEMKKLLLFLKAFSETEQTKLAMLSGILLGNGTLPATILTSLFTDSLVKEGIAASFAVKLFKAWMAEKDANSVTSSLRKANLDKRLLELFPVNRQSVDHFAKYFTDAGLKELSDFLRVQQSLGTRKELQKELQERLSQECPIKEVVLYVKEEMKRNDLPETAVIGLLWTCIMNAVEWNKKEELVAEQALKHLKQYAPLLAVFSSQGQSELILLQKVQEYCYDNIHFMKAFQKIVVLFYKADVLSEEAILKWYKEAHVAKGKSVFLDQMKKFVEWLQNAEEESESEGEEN
UniProt Q0VDD7: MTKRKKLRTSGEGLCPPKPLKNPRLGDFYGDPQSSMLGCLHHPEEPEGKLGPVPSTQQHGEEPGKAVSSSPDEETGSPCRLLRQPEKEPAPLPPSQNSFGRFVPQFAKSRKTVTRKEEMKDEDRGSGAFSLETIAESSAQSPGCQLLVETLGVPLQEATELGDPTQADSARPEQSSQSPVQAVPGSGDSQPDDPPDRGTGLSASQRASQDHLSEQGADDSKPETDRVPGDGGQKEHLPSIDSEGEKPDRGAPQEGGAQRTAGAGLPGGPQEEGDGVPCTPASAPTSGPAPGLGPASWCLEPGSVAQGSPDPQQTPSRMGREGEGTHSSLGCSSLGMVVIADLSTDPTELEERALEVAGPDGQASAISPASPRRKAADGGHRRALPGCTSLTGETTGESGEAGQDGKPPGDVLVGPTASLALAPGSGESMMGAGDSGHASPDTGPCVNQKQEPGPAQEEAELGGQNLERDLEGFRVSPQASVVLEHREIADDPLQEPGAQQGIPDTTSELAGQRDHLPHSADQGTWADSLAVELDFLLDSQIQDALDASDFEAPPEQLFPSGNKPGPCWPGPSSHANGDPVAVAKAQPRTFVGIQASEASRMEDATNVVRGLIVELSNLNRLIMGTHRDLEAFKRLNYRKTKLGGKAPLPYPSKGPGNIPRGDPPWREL
UniProt Q01518, whole entry, looked up: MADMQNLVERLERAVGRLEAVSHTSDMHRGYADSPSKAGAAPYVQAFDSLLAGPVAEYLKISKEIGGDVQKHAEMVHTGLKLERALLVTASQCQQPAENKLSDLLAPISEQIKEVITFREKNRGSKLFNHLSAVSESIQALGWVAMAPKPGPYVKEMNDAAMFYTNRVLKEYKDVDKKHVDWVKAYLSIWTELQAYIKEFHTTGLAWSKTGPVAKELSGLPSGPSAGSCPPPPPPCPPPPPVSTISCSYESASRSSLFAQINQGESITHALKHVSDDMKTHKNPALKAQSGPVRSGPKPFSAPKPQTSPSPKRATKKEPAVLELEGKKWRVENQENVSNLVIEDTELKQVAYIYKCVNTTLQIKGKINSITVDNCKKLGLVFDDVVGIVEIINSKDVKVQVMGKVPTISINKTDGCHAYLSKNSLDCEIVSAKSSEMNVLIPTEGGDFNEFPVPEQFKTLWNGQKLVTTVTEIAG
UniProt Q6UWU4: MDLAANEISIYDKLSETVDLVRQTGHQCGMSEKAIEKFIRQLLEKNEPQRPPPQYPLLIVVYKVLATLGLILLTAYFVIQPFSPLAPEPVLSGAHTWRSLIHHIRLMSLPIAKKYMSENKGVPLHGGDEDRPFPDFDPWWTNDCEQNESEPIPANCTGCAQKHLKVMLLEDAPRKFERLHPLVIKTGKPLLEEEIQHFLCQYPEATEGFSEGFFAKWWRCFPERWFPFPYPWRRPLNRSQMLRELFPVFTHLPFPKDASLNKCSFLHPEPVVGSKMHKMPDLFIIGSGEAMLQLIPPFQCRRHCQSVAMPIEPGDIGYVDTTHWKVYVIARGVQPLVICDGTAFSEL
UniProt Q5U649: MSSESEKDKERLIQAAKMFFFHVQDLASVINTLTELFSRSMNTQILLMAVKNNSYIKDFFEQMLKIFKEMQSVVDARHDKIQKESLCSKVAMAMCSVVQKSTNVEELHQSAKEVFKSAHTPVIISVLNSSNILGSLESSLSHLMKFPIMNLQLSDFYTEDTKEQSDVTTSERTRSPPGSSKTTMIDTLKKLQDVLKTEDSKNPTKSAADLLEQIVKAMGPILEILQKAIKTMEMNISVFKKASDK
UniProt Q86YS7: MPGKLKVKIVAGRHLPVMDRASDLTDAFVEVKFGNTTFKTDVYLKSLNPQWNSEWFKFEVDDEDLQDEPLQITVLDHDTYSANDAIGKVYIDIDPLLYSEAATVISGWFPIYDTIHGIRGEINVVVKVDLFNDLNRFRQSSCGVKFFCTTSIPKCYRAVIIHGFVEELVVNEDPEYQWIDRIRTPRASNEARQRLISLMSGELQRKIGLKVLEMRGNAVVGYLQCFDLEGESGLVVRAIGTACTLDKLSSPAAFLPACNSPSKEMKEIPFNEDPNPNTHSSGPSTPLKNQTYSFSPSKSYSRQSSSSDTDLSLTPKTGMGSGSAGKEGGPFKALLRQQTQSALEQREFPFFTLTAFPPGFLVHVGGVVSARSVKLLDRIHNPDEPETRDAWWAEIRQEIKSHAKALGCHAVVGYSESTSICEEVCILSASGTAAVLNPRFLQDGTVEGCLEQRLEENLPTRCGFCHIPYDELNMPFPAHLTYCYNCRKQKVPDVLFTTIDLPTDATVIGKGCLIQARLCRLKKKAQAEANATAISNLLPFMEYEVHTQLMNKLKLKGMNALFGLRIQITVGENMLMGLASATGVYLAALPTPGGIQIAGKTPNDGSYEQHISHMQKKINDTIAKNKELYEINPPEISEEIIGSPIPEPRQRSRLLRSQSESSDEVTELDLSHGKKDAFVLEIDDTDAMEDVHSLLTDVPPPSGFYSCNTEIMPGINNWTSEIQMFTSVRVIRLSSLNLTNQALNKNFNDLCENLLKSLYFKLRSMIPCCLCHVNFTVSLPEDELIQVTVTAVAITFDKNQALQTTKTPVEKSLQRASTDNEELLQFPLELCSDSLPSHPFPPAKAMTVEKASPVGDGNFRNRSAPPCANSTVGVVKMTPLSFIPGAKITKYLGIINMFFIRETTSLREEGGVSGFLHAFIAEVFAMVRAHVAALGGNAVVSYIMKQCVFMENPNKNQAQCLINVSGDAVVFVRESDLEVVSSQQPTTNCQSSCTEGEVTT
UniProt Q9P1Y5: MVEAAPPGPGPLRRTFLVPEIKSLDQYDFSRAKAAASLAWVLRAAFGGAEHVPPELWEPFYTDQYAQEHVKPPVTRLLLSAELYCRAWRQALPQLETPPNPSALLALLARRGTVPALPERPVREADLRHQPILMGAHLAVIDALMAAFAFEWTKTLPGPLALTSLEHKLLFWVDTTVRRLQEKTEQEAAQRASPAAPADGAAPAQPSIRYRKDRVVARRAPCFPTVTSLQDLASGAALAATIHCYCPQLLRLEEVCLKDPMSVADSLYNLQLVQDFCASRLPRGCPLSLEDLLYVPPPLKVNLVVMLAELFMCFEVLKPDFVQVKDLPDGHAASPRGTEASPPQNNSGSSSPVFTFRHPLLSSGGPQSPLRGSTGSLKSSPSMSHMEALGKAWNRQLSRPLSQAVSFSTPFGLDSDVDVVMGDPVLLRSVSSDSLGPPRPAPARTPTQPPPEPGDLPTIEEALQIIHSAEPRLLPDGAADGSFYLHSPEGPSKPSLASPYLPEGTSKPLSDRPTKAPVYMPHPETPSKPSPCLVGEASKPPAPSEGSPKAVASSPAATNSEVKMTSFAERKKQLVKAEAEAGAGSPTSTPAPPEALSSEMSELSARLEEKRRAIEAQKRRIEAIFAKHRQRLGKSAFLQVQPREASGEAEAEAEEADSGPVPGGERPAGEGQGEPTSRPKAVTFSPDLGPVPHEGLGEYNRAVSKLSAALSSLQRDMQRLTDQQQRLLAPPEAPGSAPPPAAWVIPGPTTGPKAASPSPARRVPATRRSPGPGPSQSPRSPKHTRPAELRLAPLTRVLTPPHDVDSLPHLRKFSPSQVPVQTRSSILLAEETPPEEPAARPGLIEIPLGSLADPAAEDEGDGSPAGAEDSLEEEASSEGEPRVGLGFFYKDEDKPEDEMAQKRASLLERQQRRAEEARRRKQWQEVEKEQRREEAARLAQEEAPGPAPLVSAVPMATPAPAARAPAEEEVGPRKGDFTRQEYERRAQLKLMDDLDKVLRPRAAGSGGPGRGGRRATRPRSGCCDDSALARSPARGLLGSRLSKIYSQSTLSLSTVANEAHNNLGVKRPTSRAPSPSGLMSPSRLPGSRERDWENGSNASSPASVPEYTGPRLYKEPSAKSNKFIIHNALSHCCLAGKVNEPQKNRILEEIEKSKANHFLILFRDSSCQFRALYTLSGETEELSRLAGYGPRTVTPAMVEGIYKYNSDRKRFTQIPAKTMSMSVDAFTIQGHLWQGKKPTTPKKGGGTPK
UniProt Q6P1S2: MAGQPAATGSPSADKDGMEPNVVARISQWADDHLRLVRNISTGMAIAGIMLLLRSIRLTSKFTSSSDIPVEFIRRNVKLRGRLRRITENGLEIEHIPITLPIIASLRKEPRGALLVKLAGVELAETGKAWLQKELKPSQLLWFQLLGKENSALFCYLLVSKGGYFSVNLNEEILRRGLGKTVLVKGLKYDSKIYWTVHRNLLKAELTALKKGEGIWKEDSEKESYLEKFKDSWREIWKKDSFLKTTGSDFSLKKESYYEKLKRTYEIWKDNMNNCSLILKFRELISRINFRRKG
UniProt Q49AR2: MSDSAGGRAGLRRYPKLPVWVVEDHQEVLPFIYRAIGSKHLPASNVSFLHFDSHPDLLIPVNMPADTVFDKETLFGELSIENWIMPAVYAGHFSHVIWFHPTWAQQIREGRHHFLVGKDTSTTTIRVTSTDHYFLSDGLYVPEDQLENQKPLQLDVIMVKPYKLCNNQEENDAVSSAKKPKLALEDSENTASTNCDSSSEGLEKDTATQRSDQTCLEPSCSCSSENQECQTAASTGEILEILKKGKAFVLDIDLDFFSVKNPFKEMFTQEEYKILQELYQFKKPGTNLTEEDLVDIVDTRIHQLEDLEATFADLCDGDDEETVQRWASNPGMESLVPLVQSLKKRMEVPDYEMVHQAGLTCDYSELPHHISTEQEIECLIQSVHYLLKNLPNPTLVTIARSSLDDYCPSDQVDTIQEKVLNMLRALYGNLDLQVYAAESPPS
UniProt Q13554, whole entry, looked up: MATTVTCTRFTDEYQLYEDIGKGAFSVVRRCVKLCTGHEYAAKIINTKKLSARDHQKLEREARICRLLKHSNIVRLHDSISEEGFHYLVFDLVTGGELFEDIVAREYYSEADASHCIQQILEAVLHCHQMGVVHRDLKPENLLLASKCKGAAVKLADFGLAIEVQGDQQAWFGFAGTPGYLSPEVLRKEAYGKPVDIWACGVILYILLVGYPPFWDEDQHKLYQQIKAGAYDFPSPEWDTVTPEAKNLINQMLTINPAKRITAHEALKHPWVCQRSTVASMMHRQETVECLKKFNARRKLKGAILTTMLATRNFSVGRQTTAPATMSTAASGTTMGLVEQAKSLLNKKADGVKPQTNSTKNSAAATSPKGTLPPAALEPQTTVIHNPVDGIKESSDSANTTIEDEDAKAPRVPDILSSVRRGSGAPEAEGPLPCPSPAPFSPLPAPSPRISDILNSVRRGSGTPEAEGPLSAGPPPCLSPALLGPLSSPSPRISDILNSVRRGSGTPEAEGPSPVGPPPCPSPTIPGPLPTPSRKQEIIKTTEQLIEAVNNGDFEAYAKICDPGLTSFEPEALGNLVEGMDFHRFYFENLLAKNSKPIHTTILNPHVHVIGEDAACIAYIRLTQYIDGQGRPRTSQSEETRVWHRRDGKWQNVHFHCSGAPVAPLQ
UniProt Q13137: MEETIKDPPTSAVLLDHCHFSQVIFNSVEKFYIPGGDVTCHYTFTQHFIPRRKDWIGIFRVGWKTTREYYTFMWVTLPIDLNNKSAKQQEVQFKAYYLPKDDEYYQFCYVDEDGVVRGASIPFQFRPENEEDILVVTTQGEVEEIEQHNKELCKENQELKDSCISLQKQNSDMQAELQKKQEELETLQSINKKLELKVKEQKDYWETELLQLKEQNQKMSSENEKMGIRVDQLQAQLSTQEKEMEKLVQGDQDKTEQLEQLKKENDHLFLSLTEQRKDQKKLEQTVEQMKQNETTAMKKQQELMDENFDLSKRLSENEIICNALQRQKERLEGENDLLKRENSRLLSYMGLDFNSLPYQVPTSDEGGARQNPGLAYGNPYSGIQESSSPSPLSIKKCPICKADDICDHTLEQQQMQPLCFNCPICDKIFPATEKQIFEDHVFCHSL

Tests used:
Experiment in all cases: log2 fold change, soluble protein after heating vs DMSO (PISA); higher = thermal stabilisation; K562 lysate, 10 uM; active = over 0.2 and 3.5 SD of the protein, either way, in both replicates (recomputed)
[1] = compound: NCC(=O)Nc1ccc(-n2nc(C(F)(F)F)cc2-c2ccc3c(ccc4ccccc43)c2)cc1
Outline: (§1)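 Dounce homogenisation of K562 pellets in PBS pH 7.4 with 1 mM MgCl2 produced a crude extract, used at 1 mg/mL protein. Exposure to 10 μM compound lasted 30 min, and aliquots were then heated for 3 min across 48°C-58°C, pooled and brought to 0.5% NP-40 at 4°C. The supernatant after 21,000xg for 90 min was quantified by TMTpro 16plex LC-MS/MS with channel sums equalised. Duplicate values are given as log-two fold change in thermal stability relative to solvent controls.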

vorinostat = compound: O=C(CCCCCCC(=O)Nc1ccccc1)NO [vorinostat]
Outline: as §1

silmitasertib = compound: O=C(O)c1ccc2c(c1)nc(Nc1cccc(Cl)c1)c1ccncc12 [silmitasertib]
Outline: as §1

[2] = compound: O=C1NC(=O)C(c2cnc3ccccn23)=C1c1cn2c3c(cc(F)cc13)CN(C(=O)N1CCCCC1)CC2
Outline: as §1

entospletinib = compound: c1cn2cc(-c3ccc4cn[nH]c4c3)nc(Nc3ccc(N4CCOCC4)cc3)c2n1 [entospletinib]
Outline: as §1

| Target | log2 fold change [1] | log2 fold change (vorinostat) | log2 fold change (silmitasertib) | log2 fold change [2] | log2 fold change (entospletinib) |
| --- | --- | --- | --- | --- | --- |
| BUD31 (UniProt P41223) | inactive: -0.009 | inactive: 0.171 | inactive: -0.026 | inactive: -0.018 | inactive: 0.021 |
| BUD23 isoform 3 (UniProt O43709) | inactive: 0.007 | inactive: 0.014 | inactive: -0.07 | inactive: -0.021 | inactive: 0.055 |
| CA2 (UniProt P00918) | inactive: 0.116 | inactive: 0.127 | inactive: -0.034 | inactive: -0.024 | inactive: 0.098 |
| C12orf65 (UniProt Q9H3J6) | inactive: -0.028 | inactive: 0.039 | inactive: -0.056 | inactive: -0.027 | inactive: 0.116 |
| BZW2 (UniProt Q9Y6E2) | inactive: 0.005 | inactive: 0.031 | inactive: 0.031 | inactive: -0.013 | inactive: 0.019 |
| C1GALT1 (UniProt Q9NS00) | inactive: 0.017 | inactive: 0.156 | inactive: -0.057 | inactive: -0.034 |  |
| C19orf57 (UniProt Q0VDD7) | inactive: 0.237 |  |  |  |  |
| C11orf98 (UniProt E9PRG8) | inactive: 0.015 | inactive: 0.167 | inactive: -0.024 | inactive: 0.033 | inactive: -0.034 |
| CAP1 (UniProt Q01518) | inactive: -0.001 | inactive: 0.112 | inactive: -0.005 | inactive: 0.008 | inactive: 0.015 |
| C1orf198 (UniProt Q9H425) | inactive: 0.111 | inactive: 0.042 | inactive: -0.048 | inactive: -0.034 | inactive: 0.048 |
| C4orf33 (UniProt Q8N1A6) | inactive: 0.013 | inactive: 0.031 | inactive: -0.048 | inactive: -0.002 | inactive: -0.009 |
| C12orf57 (UniProt Q99622) | inactive: -0.219 | inactive: 0.174 | inactive: 0.059 | inactive: -0.105 |  |
| C17orf80 (UniProt Q9BSJ5) | inactive: 0.089 | inactive: 0.113 | inactive: -0.043 | inactive: 0.118 |  |
| C6orf89 isoform 2 (UniProt Q6UWU4) | inactive: 0.03 | inactive: 0.214 | inactive: -0.017 | inactive: -0.045 | inactive: -0.019 |
| CAPN2 (UniProt P17655) | inactive: -0.019 | inactive: 0.074 | inactive: 0.001 | inactive: -0.007 | inactive: 0.007 |
| C1orf50 (UniProt Q9BV19) | inactive: -0.009 | inactive: 0.097 | inactive: -0.115 | inactive: 0.032 | inactive: 0.026 |
| C12orf60 (UniProt Q5U649) | inactive: 0.09 | inactive: 0.394 | inactive: 0.287 | inactive: 0.024 |  |
| C2CD5 isoform 3 (UniProt Q86YS7) | inactive: 0.01 | inactive: 0.086 | inactive: -0.059 | inactive: 0.049 | inactive: 0.009 |
| CAMSAP3 isoform 2 (UniProt Q9P1Y5) | inactive: 0.048 |  |  |  |  |
| C3orf33 (UniProt Q6P1S2) | inactive: -0.085 | inactive: -0.118 | inactive: -0.137 | inactive: 0.023 |  |
| C5orf22 (UniProt Q49AR2) | inactive: 0.025 | inactive: 0.079 | inactive: 0.025 | inactive: -0.035 | inactive: 0.004 |
| CANX (UniProt D6RHJ3) | inactive: 0.012 |  |  |  |  |
| CAMK2B (UniProt Q13554) | inactive: 0.014 | inactive: -0.133 | inactive: -0.017 | inactive: 0.056 | inactive: -0.02 |
| CALCOCO2 isoform 4 (UniProt Q13137) | inactive: 0.019 | inactive: -0.058 | inactive: 0.014 | inactive: 0.013 | inactive: -0.023 |
| CAPN15 (UniProt O75808) | inactive: 0.028 | active: -0.504 | inactive: -0.016 | inactive: -0.081 | inactive: -0.043 |
| CAD (UniProt P27708) | inactive: 0.012 | inactive: -0.067 | inactive: 0.026 | inactive: 0.008 | inactive: 0 |
| CAB39L (UniProt Q9H9S4) | inactive: 0.037 | inactive: 0.045 | inactive: -0.06 | inactive: 0.112 |  |

Rewritten with bars between the fields: part of the list above
Target | log2 fold change [1] | log2 fold change (vorinostat) | log2 fold change (silmitasertib) | log2 fold change [2] | log2 fold change (entospletinib)
C6orf89 isoform 2 (UniProt Q6UWU4) | inactive: 0.03 | inactive: 0.214 | inactive: -0.017 | inactive: -0.045 | inactive: -0.019
CAPN2 (UniProt P17655) | inactive: -0.019 | inactive: 0.074 | inactive: 0.001 | inactive: -0.007 | inactive: 0.007
